At least one structure is not confirmed: it was looked up by name or label, or the drawing left a doubt.
Legend:
[1] = tested on: NFκB pathway in macrophages; conditions: severe COVID-19 patients, Cao et al. 2020; cited from earlier work
SARS-CoV-2 = assay: GA treatment of COVID-19 golden hamster via intranasal administration; format: in vivo, golden hamster rats

Row | SMILES | expression level of IL-6, IL-1β, and TNF-α [1] | IL-6, IL-1β, and TNF-α in lungs vs GA5 mg/kg and GA10mg/kg-treated group (SARS-CoV-2; nasal spray 25 mg/kg.bw) | SARS-CoV-2 spike level in lungs vs GA5 mg/kg and GA10 mg/kg-treated groups (SARS-CoV-2; nasal spray 25 mg/kg.bw) | SARS-CoV-2 spike expression level in lungs vs NS-treated group (SARS-CoV-2; nasal spray 25 mg/kg.bw, immuno-fluorescence) | IL-6, IL-1β, and TNF-α in lungs vs NS-treated rats (SARS-CoV-2; nasal spray, Remdesivir 25 mg/kg.bw, GA 5 and 10 mg/kg)
1 | N#CC[C@H](C1CCCC1)n1cc(-c2ncnc3[nH]ccc23)cn1 [RUXOLITINIB] | down regulation | – | – | – | –
2 | CCC(CC)COC(=O)[C@H](C)N[P@](=O)(OC[C@H]1O[C@@](C#N)(c2ccc3c(N)ncnn23)[C@H](O)[C@@H]1O)Oc1ccccc1 | – | significantly (p < 0.005) higher | significantly (p < 0.005) higher | significantly (p < 0.005) lower | significantly (p < 0.005) lower

— patent US20230241101A1 (priority 2020, published 2023)
